Consider 59 molecules from PubChem BioAssay AID2685 (National Center for Advancing Translational Sciences (NCATS), 2010).

The test in a line: qHTS Assay for Lipid Storage Modulators in Drosophila S3 Cells.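 On cell number change: cells counted by Cell Tracker Red CMTPX staining in the red channel.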 The following applies: BODIPY lipid droplet fluorescence, 18-24 h; for cell number change: measured here: cell count max response, cells fed with added oleic acid. A digest of the protocol: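 Laser-scanning cytometry quantifies lipid droplet accumulation (500–530 nm total intensity; droplet/cell object ratio) in oleic acid-fed (400 uM added) Drosophila S3 cells treated with a concentration series. 20 uM Triacsin C defined 100% inhibition.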

Where [1] appears, read: measured here: cell number channel AC50, cells fed with added oleic acid.
The mark [2] stands for this setting: measured here: lipid fluorescence (Fed channel) AC50, cells fed with added oleic acid.

Where “and” joins values, the source holds several entries; their conditions need not be identical. Equal values may be shown once. Some of the results follow. Shown are side measurements of this screen, not its main read-out; they come without a call. Most of these compounds were active or inconclusive in the main read-out, so they are no random draw. Potencies come from curve fits of mixed quality, noted in brackets.

What is called AC50 is the concentration at which the activity in the assay is half-maximal. Take `COC(=O)C(NNc1ccccc1C)(NC(=O)c1ccc(F)cc1)C(F)(F)F` (stereo not given): the cell number change was -61.9%. Also, the AC50 under setting [1] was 4.61 µM [falling, partial curve]. Further, the AC50 under setting [2] was 25.9 µM [falling, single point].

On to `O=C1NC2(CCCCCC2)C(=O)N1CCS(=O)(=O)Oc1ccccc1`, for which the cell number change amounted to 38.7%. Also, the AC50 under setting [1] was 29.1 µM [rising, single point].

Regarding `COc1ccc(CCNc2cc(C)[nH]c(=O)c2)cc1OC`, the cell number change came out at 23.7%.

In the case of `O=C(Nc1cc(F)cc(F)c1)c1ccc(NCCc2ccccc2)c([N+](=O)[O-])c1`, the cell number change is -39.1%. Moreover, the AC50 under setting [1] was 16.4 µM [falling, single point]. In addition, the AC50 under setting [2] is 29.1 µM [falling, single point].

As for `CCOc1ccc(NC(=O)Cn2nnc(C(=O)NCCc3ccc(OC)c(OC)c3)c2N)cc1`, the cell number change was determined as 18.9%. Further, the AC50 under setting [2] is 20.6 µM [rising, single point].

For `Cc1ccc(Cl)cc1N1CCN(S(C)(=O)=O)CC1`, the cell number change came to 7.28%.

For `COc1cc2c(cc1OC)C(c1ccc3c(c1)OCO3)CC(=O)N2` (stereo not given), the cell number change was determined as 37.2%. Also, the AC50 under setting [1] is 25.9 µM [rising, single point]. The AC50 under setting [2] was 29.1 µM [rising, single point].

For the molecule `Cc1cc(C(=O)CSc2nnnn2C)c(C)n1-c1ccc2c(c1)OCCO2`, the cell number change was -5.1%.

As for `O=c1oc2ccc(Cl)cc2cc1-c1ccccc1`, the cell number change is -7.21%.

On to `O=C(CCCN1C(=O)c2ccccc2C1=O)Nc1ccc(S(=O)(=O)N2CCOCC2)cc1`, for which the cell number change was -1.08%.

As for `CCOc1c(OC)cccc1C(=O)NCC1(c2ccccc2)CCCC1`, the cell number change was -4.26%. Moreover, the AC50 under setting [1] was 2.59 µM [rising, single point].

In the case of `COc1ccc(-n2nc(C(=O)NCC(=O)N3CCC(C)CC3)c3ccccc3c2=O)cc1`, the cell number change was 22.5%. Moreover, the concentration at half-maximal activity (AC50) under setting [2] is 0.82 µM [falling, full curve].

Turning to `CCCCn1c(SCC(=O)NCc2ccco2)nc2c(sc3ccccc32)c1=O`, the cell number change turned out to be 14.2%. Besides, the half-maximal activity concentration (AC50) under setting [2] is 1.46 µM [rising, full curve].

Turning to `O=C(CN1C(=O)NC2(CCCC2)C1=O)Nc1ccc(OC(F)(F)F)cc1`, the cell number change amounted to 11.4%. Also, the AC50 under setting [2] is 6.51 µM [falling, single point].

Consider `COc1ccc(CNS(=O)(=O)c2cn(C)c(=O)n(C)c2=O)cc1`, for which the cell number change is -19.9%. Further, the AC50 under setting [2] was 0.58 µM [falling, full curve].

For the molecule `Cc1ccc2oc(=O)c3cc(C(=O)N4CCN(C)CC4)sc3c2c1`, the cell number change was found to be 9.68%. Moreover, the AC50 under setting [1] was 0.13 µM [rising, partial curve, poor fit].

With `Cn1cc(Br)c(C(=O)NC2CCCCC2)n1`, the cell number change came to 137%. The AC50 under setting [1] is 18.4 µM [rising, single point].

For the molecule `c1ccc2[nH]c(CN3CCCCC3)nc2c1`, the cell number change is 36%. For the same molecule, under setting [1], the AC50 was 9.2 µM [rising, single point].

With `COc1ccc(S(=O)(=O)Nc2ccccc2-c2nnn(CC(=O)Nc3ccccc3OC)n2)cc1`, the AC50 under setting [2] was 1.84 µM [rising, partial curve].

For the molecule `O=C(CN1CCCCC1)c1c[nH]c2ccccc12`, the cell number change is -1.75%. For the same molecule, the AC50 under setting [2] was 9.2 µM [rising, partial curve].

Regarding `COc1cc(N=c2ssnc2Cl)c(OC)cc1Cl`, the cell number change was -50.3% and -25.9%. Moreover, under setting [1], the AC50 is 29.1 µM [falling, single point] and 3.66 µM [falling, full curve, poor fit]. Further, the half-maximal activity concentration (AC50) under setting [2] was 29.1 µM [falling, single point] and 3.66 µM [falling, single point].

Turning to `CC(C)C1CC(CCNCc2ccc3c(c2)OCO3)(c2ccccc2)CCO1` (stereo not given), the cell number change was 8.44%. For the same molecule, the AC50 under setting [2] is 0.651 µM [falling, single point].

Consider `Cc1ccc(NC(=O)C2(S(=O)(=O)c3ccc(C)cc3)CC2)cc1`, for which the cell number change worked out at 4.94%. Further, under setting [1], the AC50 was 0.326 µM [rising, full curve]. Also, the AC50 under setting [2] is 1.64 µM [rising, full curve].

`COc1ccc(OCc2cc(-c3ccc(Cl)cc3)no2)cc1`: the cell number change is -35.7%.

In the case of `N=c1n(CCN2CCOCC2)c2ccccc2n1Cc1ccccc1Br`, the cell number change was -11.3%. Further, the AC50 under setting [1] is 0.00517 µM [falling, full curve, poor fit]. The AC50 under setting [2] was 0.0058 µM [falling, full curve, poor fit].

Turning to `Cc1cc(C)c2cc3c(ccn3C3OC[C@H](O)[C@H](O)[C@H]3O)cc2n1` (stereo not given in full), the cell number change was -70.7%. Further, the AC50 under setting [1] was 9.2 µM [falling, partial curve]. Also, under setting [2], the AC50 was 6.51 µM [falling, single point].

As for `O=C(O)c1cc(NS(=O)(=O)c2cccs2)cc(NS(=O)(=O)c2cccs2)c1`, the cell number change is -14.1%.

In the case of `COc1ccc(NCc2nnc(SCC(=O)Nc3cc(C(F)(F)F)ccc3Cl)o2)cc1`, the cell number change came to 3.32%. Besides, the AC50 under setting [1] is 0.517 µM [rising, partial curve]. Moreover, under setting [2], the AC50 is 0.58 µM [rising, single point].

`Cc1ccccc1Nc1nc(N)nc(COC(=O)c2cccc(S(=O)(=O)N(C)c3ccccc3)c2)n1`: the cell number change came out at 8.28%. For the same molecule, the AC50 under setting [2] was 4.61 µM [rising, full curve].

Regarding `O=C(O)C1=C(Nc2ccccc2)OCC1=O`, the cell number change was 7.89%. Moreover, the AC50 under setting [2] was 5.62 µM [rising, single point].

For the molecule `O=C(/C=C/c1ccccc1[N+](=O)[O-])OCC(=O)N1CCCC1`, the cell number change was -2.85%. The concentration at half-maximal activity (AC50) under setting [2] was 0.291 µM [rising, partial curve, poor fit].

Regarding `COC(=O)c1sc(N)c(C(=O)OC)c1COC(=O)C1CC(=O)N(Cc2ccco2)C1` (stereo not given), the cell number change was found to be 167%. Further, the AC50 under setting [1] is 2.91 µM [rising, full curve]. Under setting [2], the AC50 was 2.31 µM [rising, full curve].

In the case of `FC(F)(F)c1nnc(Nc2ccc(Cl)cc2)s1`, the AC50 under setting [2] is 1.3 µM [rising, full curve].

In the case of `Cc1ccc(S(=O)(=O)Nc2nc3ccccc3nc2NCC2CCCO2)c(C)c1` (stereo not given), the cell number change was determined as 24%. Further, the AC50 under setting [1] is 0.00461 µM [rising, full curve, poor fit]. Also, under setting [2], the AC50 is 2.31 µM [rising, partial curve, poor fit].

For the molecule `COc1ccc(C(=O)NCc2nnc(SCC(=O)Nc3nc4ccc(C)cc4s3)o2)cc1OC`, the cell number change was -2.98%. Also, the AC50 under setting [2] is 0.82 µM [falling, full curve].

In the case of `CCCCOC(=O)CCn1[nH]c(=O)c2ccccc2c1=O`, the cell number change was -4.43%. Besides, the AC50 under setting [2] was 0.58 µM [falling, single point].

Turning to `O=C(c1ccco1)N1CCN(Cc2cccc([N+](=O)[O-])c2)CC1`, the cell number change came out at 28.2%.

In the case of `CC1(C(=O)O)Cc2ccccc2C(=O)O1` (stereo not given), the cell number change is -116%. Under setting [1], the AC50 is 20.6 µM [falling, partial curve].

For the molecule `Cc1ccccc1CCNC(=O)C1CC(O)CN1C(=O)Nc1ccccc1` (stereo not given), the cell number change was 13.7%. In addition, the AC50 under setting [2] was 29.1 µM [falling, single point].

As to `CC(C)CC(=O)NN(C)c1nc(-c2ccccc2)nnc1C(F)(F)F`, the AC50 under setting [2] was 32.6 µM [rising, partial curve].

As to `COc1cc(/C=C/C(=O)OC2CC3CCC2(C)C3(C)C)ccc1O` (stereo not given), the cell number change is -75.9%. Further, the AC50 under setting [1] was 25.9 µM [falling, single point].

Take `Cn1c(N)c(C(=O)COC(=O)C2(c3ccc(Cl)cc3)CCCC2)c(=O)n(C)c1=O`: the cell number change is -10.3%. Besides, the AC50 under setting [2] was 6.51 µM [rising, partial curve, poor fit].

With `Cc1ccc(S(=O)(=O)N(C)C)cc1NC(=O)/C=C/c1cccs1`, the cell number change is 11.7%. In addition, the AC50 under setting [2] is 4.11 µM [rising, partial curve].

In the case of `CCOc1ccc(NC(=O)Cn2cc(C(=O)C3CC3)c3ccccc32)cc1`, the cell number change was -3.85%. Besides, the AC50 under setting [2] was 6.51 µM [falling, single point].

`COc1ccccc1NC(=O)CSc1nnc(Cc2ccccc2)o1`: the cell number change is 5.6%.

`COc1ccc(CN(CC2CCC(C(=O)O)CC2)C(=S)Nc2cc(C)ccc2C)cc1` (stereo not given): under setting [1], the AC50 was 2.31 µM [rising, partial curve, poor fit].

Regarding `Fc1cccc(F)c1/C=N/NC(=S)Nc1cccnc1`, the cell number change worked out at 8.34%. For the same molecule, under setting [2], the AC50 was 0.146 µM [falling, full curve, poor fit].

In the case of `CCOC(=O)C1=C(C)Nc2sc(C(=O)c3ccc(F)cc3)c(N)c2C1c1ccc(C(=O)OC)cc1` (stereo not given), the cell number change worked out at 0.427%. Moreover, the AC50 under setting [2] is 2.06 µM [rising, partial curve].

Take `CCC1COCCS(=O)(=O)N1Cc1ccc(F)cc1` (stereo not given): the cell number change was 32%. For the same molecule, under setting [1], the AC50 was 0.259 µM [rising, full curve, poor fit]. In addition, the AC50 under setting [2] was 0.116 µM [rising, full curve, poor fit].

Regarding `CC(=O)N1c2ccc(S(=O)(=O)NCCC(=O)NC3CCCC(C)C3C)cc2CC1C` (stereo not given), the cell number change is 23.5%.

On to `Cc1nn(Cc2ccccc2Cl)c(C)c1C(=O)NCCN1C(=O)S/C(=C\c2ccccc2)C1=O`, for which the cell number change was -70.8%. Also, the AC50 under setting [1] is 16.4 µM [falling, partial curve]. Besides, the AC50 under setting [2] is 20.6 µM [falling, single point].

As for `CNS(=O)(=O)c1cc(NC(=O)c2cnc(SC)n2-c2ccccc2)ccc1C`, the cell number change is -3.6%. Besides, under setting [2], the AC50 was 0.103 µM [rising, full curve, poor fit].

As to `CCN(CC)S(=O)(=O)c1ccc(NS(=O)(=O)c2cccc(C)c2)cc1`, the cell number change is 3.61%. For the same molecule, the AC50 under setting [1] is 0.0651 µM [rising, full curve, poor fit]. For the same molecule, under setting [2], the AC50 is 32.6 µM [falling, single point].

As to `N#C/C(=C(/O)c1ccc(F)cc1)c1nc2ccccc2s1`, the cell number change was -11.3%. For the same molecule, the AC50 under setting [2] was 18.4 µM [falling, single point].

Turning to `CC(C(=O)NC1=NCCS1)N1C(=O)C2CC=CCC2C1=O` (stereo not given), under setting [2], the AC50 is 16.4 µM [falling, partial curve].

Consider `CCCCn1nc(NC(=O)CC(C)C)c2cc3cc(OC)ccc3nc21`, for which the cell number change was -11.7%. In addition, under setting [2], the AC50 was 29.1 µM [falling, single point].

In the case of `CCOc1ccc(S(=O)(=O)N(CC)CC(=O)NC2CC2)cc1`, the cell number change is 7.37%.

`CCCCn1c(N)c(N(CC(C)C)C(=O)C2CCN(S(=O)(=O)c3ccccc3)CC2)c(=O)[nH]c1=O`: the cell number change is -1.82%. The AC50 under setting [2] was 6.51 µM [rising, single point].

As for `Cn1cnnc1SCC(=O)NC1CCCc2ccccc21` (stereo not given), the cell number change was -23.8%. For the same molecule, under setting [2], the concentration at half-maximal activity (AC50) is 2.91 µM [falling, single point].
